Measured values reported in PubChem BioAssay AID2685 (National Center for Advancing Translational Sciences (NCATS), 2010).
Some of the results follow. Shown are side measurements of this screen, not its main read-out; they come without a call. Most of these compounds were active or inconclusive in the main read-out, so they are no random draw. Words in brackets tell the shape of the fitted curve; partial curves, single points and poor fits give uncertain potencies.

Test: qHTS Assay for Lipid Storage Modulators in Drosophila S3 Cells;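 as to cell number change: cells counted by Cell Tracker Red CMTPX staining in the red channel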
Details: BODIPY lipid droplet fluorescence, 18-24 h; for cell number change: measured here: cell count max response, cells fed with added oleic acid
In short: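 Drosophila S3 cells loaded with oleic acid (400 uM, as added) and compounds at several concentrations; lipid droplets imaged by 488-nm laser-scanning cytometry, 500–530 nm intensity and object ratio to cell channel. Percent activity normalized to 20 uM Triacsin C.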

[1] = measured here: cell number channel AC50, cells fed with added oleic acid
[2] = measured here: lipid fluorescence (Fed channel) AC50, cells fed with added oleic acid

**Q.** For `CCCCCC(=O)N/N=C(\C)c1ccc(NC(=O)c2ccco2)cc1`, which cell number change is on record?
**A.** 26.3%

**Q.** With `Cc1cc(C)n2c(SCC(=O)NC3CCCCC3C)nnc2n1` (stereo not given) as the compound, how does the cell number change read?
**A.** 61.2%

**Q.** And the AC50 [1]?
**A.** 0.0058 µM [rising, full curve, poor fit]

**Q.** For `Cc1noc(C)c1COc1cccc(C(=O)Nc2ccc(OCc3ccccc3)cc2)c1`, which cell number change is on record?
**A.** -106%

**Q.** And the AC50 [1]?
**A.** 16.4 µM [falling, partial curve]

**Q.** With `CC(CC(=O)OCC(=O)Nc1ccc2[nH]c(=O)[nH]c2c1)c1ccccc1` (stereo not given) as the compound, how does the cell number change read?
**A.** -13.7%

**Q.** What about the AC50 [2] of the same compound?
**A.** 29.1 µM [rising, partial curve, poor fit]

**Q.** What does the source list for `Fc1ccccc1OCCCN1CCOCC1`?
**A.** cell number change: -44.8%; AC50 [1]: 1.03 µM [falling, partial curve]; AC50 [2]: 6.51 µM [falling, single point]

**Q.** With `COc1cccc2c(Nc3ccccc3C)cc(C)nc12` as the compound, how does the cell number change read?
**A.** -24.1%

**Q.** And the AC50 [2]?
**A.** 29.1 µM [falling, single point]

**Q.** With `Cn1nc(C(F)(F)F)c2cc(C(=O)Nc3ccc(Cl)cc3)sc21` as the compound, how does the cell number change read?
**A.** -16.2%

**Q.** What about the AC50 [1] of the same compound?
**A.** 0.0326 µM [rising, full curve, poor fit]

**Q.** Which results are given for `Cc1ccccc1NC(=O)CC1c2ccccc2CC(C)(C)N1C` (stereo not given)?
**A.** cell number change: -21.9%; AC50 [2]: 0.92 µM [falling, full curve]

**Q.** With `CC(C)Nc1nc(NC(C)C)nc(OCCOC(=O)Nc2ccccc2)n1` as the compound, how does the cell number change read?
**A.** 16.3%

**Q.** And the AC50 [2]?
**A.** 2.31 µM [rising, partial curve]

**Q.** With `Oc1ccc(-c2[nH]ncc2-c2cnn(-c3ccccc3)c2)c(O)c1` as the compound, how does the cell number change read?
**A.** 37.3%

**Q.** What about the AC50 [1] of the same compound?
**A.** 6.51 µM [rising, full curve, poor fit]

**Q.** What about the AC50 [2] of the same compound?
**A.** 0.411 µM [falling, single point]

**Q.** Which cell number change does the source give for `Cc1ccc(-c2nn(-c3ccccc3)cc2C(=O)NCCCN2CCOCC2)cc1` here?
**A.** -19.9%

**Q.** And the AC50 [1]?
**A.** 0.82 µM [falling, partial curve, poor fit]

**Q.** Which cell number change does the source give for `Oc1ccc(Cl)cc1C=Nc1ccccc1Br` here?
**A.** -13.2%

**Q.** What about the AC50 [1] of the same compound?
**A.** 2.06 µM [rising, partial curve, poor fit]

**Q.** What about the AC50 [2] of the same compound?
**A.** 2.59 µM [rising, partial curve, poor fit]

**Q.** For `Cc1c(NC(=O)CSc2ccc3ccccc3n2)c(=O)n(-c2ccccc2)n1C`, which cell number change is on record?
**A.** -4.79%

**Q.** With `Cc1nn2c(-c3cccc(NC(=O)CSc4nc5ccccc5o4)c3)nnc2c2ccccc12` as the compound, how does the cell number change read?
**A.** -106%

**Q.** For `COc1ccccc1C(=O)COC(=O)c1c(-c2ccccc2)noc1C`, which cell number change is on record?
**A.** 13.2%

**Q.** What about the AC50 [1] of the same compound?
**A.** 0.146 µM [rising, full curve, poor fit]

**Q.** And the AC50 [2]?
**A.** 0.116 µM [rising, full curve, poor fit]

**Q.** Which results are given for `COc1ccccc1CC(=O)N1CCN(S(=O)(=O)c2cccs2)CC1`?
**A.** cell number change: 28.6%; AC50 [1]: 0.291 µM [rising, full curve, poor fit]; AC50 [2]: 6.51 µM [rising, single point]

**Q.** With `Cc1ccc2occ(/C=N/NC(=O)c3ccccc3C)c(=O)c2c1` as the compound, how does the cell number change read?
**A.** 1.88%

**Q.** With `CN(c1ccc(Cl)cc1)c1cc(=O)n(C)c2ccccc12` as the compound, how does the cell number change read?
**A.** -18.2%

**Q.** What does the source list for `O=c1cc(NCc2ccccc2)nc2ccccn12`?
**A.** cell number change: 138%; AC50 [1]: 0.164 µM [rising, full curve, poor fit]; AC50 [2]: 0.13 µM [rising, single point]

**Q.** For `COc1cccc(NC(=O)COc2ccccc2C(N)=O)c1`, which cell number change is on record?
**A.** 144%

**Q.** What about the AC50 [1] of the same compound?
**A.** 20.6 µM [rising, partial curve]

**Q.** And the AC50 [2]?
**A.** 14.6 µM [rising, partial curve]

**Q.** Which results are given for `COc1ccc(S(=O)(=O)N2CCC(Nc3ccccc3Cl)CC2)cc1`?
**A.** cell number change: -0.289%; AC50 [2]: 0.103 µM [falling, full curve, poor fit]

**Q.** Which results are given for `CCn1nc(NS(=O)(=O)c2ccccc2)c2cc3ccccc3nc21`?
**A.** cell number change: -14.7%; AC50 [2]: 0.58 µM [falling, single point]

**Q.** Which cell number change does the source give for `Cc1ccc(Nc2nnc(SCC(=O)NCCN3C(=O)CSC3=O)s2)cc1C` here?
**A.** -19.9%

**Q.** What about the AC50 [2] of the same compound?
**A.** 10.3 µM [falling, partial curve]

**Q.** What does the source list for `Cc1ccnc(NC(=O)COc2ccccc2[N+](=O)[O-])c1`?
**A.** cell number change: 22%; AC50 [1]: 0.92 µM [falling, full curve, poor fit]; AC50 [2]: 0.731 µM [falling, single point]

**Q.** For `CCC(C)NC(=O)CC(c1ccccc1)c1cc(C)ccc1O` (stereo not given), which cell number change is on record?
**A.** 9.93%

**Q.** And the AC50 [2]?
**A.** 6.51 µM [falling, partial curve, poor fit]

**Q.** Which cell number change does the source give for `O=C1CCN(CCc2ccccc2)CCN1[C@H](CSc1ccccc1)c1ccccc1` here?
**A.** 4.19%

**Q.** Which AC50 [1] does the source give for `O=C1c2ccccc2C(=O)N1CCc1csc(-c2cccc(Cl)c2)n1` here?
**A.** 2.59 µM [rising, partial curve]

**Q.** What about the AC50 [2] of the same compound?
**A.** 2.06 µM [rising, partial curve]

**Q.** For `Cc1ccc(S(=O)(=O)N2CCN(CC(=O)NC(C)c3ccccc3)CC2)cc1` (stereo not given), which cell number change is on record?
**A.** 1.57%

**Q.** For `Cc1nc2c(C(=O)Nc3ccc(N4CCCC(O)C4)cc3)snc2c(=O)[nH]1` (stereo not given), which cell number change is on record?
**A.** -22.9%

**Q.** What about the AC50 [2] of the same compound?
**A.** 1.46 µM [falling, partial curve]

**Q.** With `O=C(CSc1nc2ccccc2o1)N1c2ccccc2Sc2ccccc21` as the compound, how does the cell number change read?
**A.** 0.427%

**Q.** And the AC50 [2]?
**A.** 0.58 µM [rising, partial curve, poor fit]

**Q.** What does the source list for `O=C(CSc1nnnn1C1CCCCC1)NCCc1ccccc1`?
**A.** cell number change: 12.6%; AC50 [2]: 0.259 µM [falling, full curve, poor fit]

**Q.** What does the source list for `Cc1ccc(C(=O)N/C(=C/c2ccc(N(C)C)cc2)C(=O)NCC2CCCO2)cc1` (stereo not given)?
**A.** cell number change: -7.5%; AC50 [2]: 9.2 µM [rising, single point]

**Q.** Which cell number change does the source give for `CC1CCN(S(=O)(=O)c2ccc3nc(-c4ccccn4)cc(C(=O)NCCN(C)Cc4ccccc4)c3c2)CC1` here?
**A.** 26.6%

**Q.** For `CC(=O)N1CCN(c2ccc(NC(=O)c3ccc(C)cc3)cc2)CC1`, which cell number change is on record?
**A.** -2.6%

**Q.** With `COc1ccc(S(=O)(=O)Nc2nc3ccccc3s2)cc1OC` as the compound, how does the cell number change read?
**A.** 58.1%

**Q.** What about the AC50 [1] of the same compound?
**A.** 20.6 µM [rising, single point]

**Q.** For `Cc1ccc2nc(SCC(=O)N3CCCC3)nc(=O)n2c1`, which cell number change is on record?
**A.** -75.9%

**Q.** What about the AC50 [1] of the same compound?
**A.** 20.6 µM [falling, partial curve, poor fit]

**Q.** Which results are given for `Cc1cc(NC(c2cccnc2)c2ccc3cccnc3c2O)no1` (stereo not given)?
**A.** cell number change: 0.0646%; AC50 [2]: 0.92 µM [rising, partial curve]

**Q.** With `CC(=O)Nc1ccc(OCc2nnc(-c3ccc(Cl)cc3)o2)cc1` as the compound, how does the AC50 [1] read?
**A.** 0.103 µM [rising, single point]

**Q.** Which cell number change does the source give for `CC(=O)NC(CC(=O)OCC(=O)N1c2ccccc2NC(=O)C1(C)C)c1ccccc1` (stereo not given) here?
**A.** -13.3%
